In paper PMC6195628:
No constants are given. Whether binding was seen depends on the method and setting. Binding seen in cells or lysates may run through a third protein. Some results given as binding are weak or reduced against the parent protein; the word gives no strength.

By UniProt entry, the sequences of proteins in these tests, tags left out. Where a name states a change or a piece, a line headed by the entry shows the natural chain unless it says otherwise. Chains listed by the source or under a name are the forms on record and can include a tag or linker. Residues count along the entry.
3xFLAG tagged murine Notch1 intracellular domain (N1ICD) (Q01705, residues 1744-2531): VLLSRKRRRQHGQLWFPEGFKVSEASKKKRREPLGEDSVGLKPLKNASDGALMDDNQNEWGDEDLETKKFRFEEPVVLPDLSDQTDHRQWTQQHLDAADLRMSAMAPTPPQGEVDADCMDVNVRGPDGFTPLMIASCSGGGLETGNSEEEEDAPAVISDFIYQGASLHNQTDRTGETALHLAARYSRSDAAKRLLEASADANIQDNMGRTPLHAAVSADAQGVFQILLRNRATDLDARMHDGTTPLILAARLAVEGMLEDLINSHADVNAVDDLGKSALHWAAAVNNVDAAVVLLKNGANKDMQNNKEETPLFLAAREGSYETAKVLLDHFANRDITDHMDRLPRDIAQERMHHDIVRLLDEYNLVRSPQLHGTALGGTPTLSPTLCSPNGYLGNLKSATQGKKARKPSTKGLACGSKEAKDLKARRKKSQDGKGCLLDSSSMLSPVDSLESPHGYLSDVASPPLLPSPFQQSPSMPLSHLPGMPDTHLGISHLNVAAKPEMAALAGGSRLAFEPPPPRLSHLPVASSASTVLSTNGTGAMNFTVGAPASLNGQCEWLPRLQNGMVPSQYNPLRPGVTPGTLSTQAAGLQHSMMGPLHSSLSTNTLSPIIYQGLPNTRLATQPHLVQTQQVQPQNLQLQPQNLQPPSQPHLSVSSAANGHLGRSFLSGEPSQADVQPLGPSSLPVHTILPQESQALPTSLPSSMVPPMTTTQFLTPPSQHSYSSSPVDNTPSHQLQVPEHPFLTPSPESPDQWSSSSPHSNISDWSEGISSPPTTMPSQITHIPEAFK
3xFLAG N1ICD Quad mutant (Y1938F, Y2074F, Y2116F, Y2145F) (Q01705, form named): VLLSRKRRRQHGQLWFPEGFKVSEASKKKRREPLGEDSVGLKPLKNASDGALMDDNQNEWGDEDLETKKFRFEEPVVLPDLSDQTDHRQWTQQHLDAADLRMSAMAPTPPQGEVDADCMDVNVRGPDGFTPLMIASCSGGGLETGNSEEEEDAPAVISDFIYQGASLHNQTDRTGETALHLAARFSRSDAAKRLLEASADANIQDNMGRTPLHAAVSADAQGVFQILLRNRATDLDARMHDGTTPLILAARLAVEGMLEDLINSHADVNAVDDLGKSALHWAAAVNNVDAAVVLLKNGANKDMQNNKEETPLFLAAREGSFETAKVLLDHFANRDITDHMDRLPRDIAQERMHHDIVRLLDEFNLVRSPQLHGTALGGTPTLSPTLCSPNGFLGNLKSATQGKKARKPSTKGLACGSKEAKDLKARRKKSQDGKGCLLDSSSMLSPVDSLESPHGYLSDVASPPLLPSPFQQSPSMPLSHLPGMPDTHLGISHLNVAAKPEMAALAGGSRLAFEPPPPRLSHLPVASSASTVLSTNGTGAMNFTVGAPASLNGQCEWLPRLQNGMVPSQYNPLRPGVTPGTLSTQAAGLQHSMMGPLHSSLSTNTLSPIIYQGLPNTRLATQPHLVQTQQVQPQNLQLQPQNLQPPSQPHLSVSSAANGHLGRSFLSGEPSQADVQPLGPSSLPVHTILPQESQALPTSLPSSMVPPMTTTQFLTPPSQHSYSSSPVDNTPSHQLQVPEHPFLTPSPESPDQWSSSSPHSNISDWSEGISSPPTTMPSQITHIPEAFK
UniProt Q92585: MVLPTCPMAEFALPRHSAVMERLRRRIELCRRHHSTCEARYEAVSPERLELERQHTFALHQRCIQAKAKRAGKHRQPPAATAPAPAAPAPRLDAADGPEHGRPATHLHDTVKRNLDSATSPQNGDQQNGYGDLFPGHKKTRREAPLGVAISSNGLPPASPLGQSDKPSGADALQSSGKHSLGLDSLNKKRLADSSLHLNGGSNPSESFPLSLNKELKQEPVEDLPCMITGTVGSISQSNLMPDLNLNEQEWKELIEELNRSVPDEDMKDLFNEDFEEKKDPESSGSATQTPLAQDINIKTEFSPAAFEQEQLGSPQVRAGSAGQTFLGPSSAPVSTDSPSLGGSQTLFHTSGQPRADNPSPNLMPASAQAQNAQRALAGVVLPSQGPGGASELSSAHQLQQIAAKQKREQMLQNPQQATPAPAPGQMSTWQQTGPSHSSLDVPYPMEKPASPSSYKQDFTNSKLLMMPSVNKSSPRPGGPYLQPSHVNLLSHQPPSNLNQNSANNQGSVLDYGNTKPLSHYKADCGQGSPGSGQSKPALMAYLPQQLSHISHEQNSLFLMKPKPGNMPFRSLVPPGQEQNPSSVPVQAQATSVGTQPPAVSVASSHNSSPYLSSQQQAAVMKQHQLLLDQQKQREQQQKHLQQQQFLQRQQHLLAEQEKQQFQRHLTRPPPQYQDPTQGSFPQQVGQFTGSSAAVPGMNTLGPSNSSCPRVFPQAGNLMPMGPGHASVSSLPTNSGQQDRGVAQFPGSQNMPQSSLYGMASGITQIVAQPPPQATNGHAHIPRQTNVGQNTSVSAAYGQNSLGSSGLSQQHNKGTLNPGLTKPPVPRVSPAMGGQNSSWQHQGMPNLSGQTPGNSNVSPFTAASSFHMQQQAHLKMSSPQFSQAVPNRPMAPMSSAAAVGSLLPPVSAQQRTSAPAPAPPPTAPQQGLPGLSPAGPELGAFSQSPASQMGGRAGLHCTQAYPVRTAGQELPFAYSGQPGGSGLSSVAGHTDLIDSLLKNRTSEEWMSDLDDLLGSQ

Legend:
[1] = biological target: 3xFLAG N1ICD Quad mutant (Y1938F, Y2074F, Y2116F, Y2145F) (murine) (UniProt Q01705); assay: co-IP; anti-FLAG affinity resin on lysates of transfected 293 T cells, overnight at 4 °C; 200 mM KCl, 25 mM Hepes, 1% NP-40, pH 7.5; blots with anti-Src or anti-MAML1; with or without overexpressed c-Src, β3 integrin or MAGP2, or SFK inhibitor AZM475271
[2] = biological target: 3xFLAG tagged murine Notch1 intracellular domain (N1ICD) (murine) (UniProt Q01705); assay: as above

## human MAML1 with a myc tag (from UniProt Q92585 1-1016)
[1]
  binding: binds
[2]
  binding: binds
